The target in test [1] is AR40A746.2.3 antigen (CD9) in cynomolgus monkey normal tissues (cynomolgus monkey). The test can be described thus: IHC on normal spleen tissue.
Test [2] shares this target. The experiment in a line: IHC on normal tissue micro arrays, 5 micrograms/mL.

These are yes or no findings as the source states them, for the method shown. Some entries that bind do so weakly or less than the wild type.

B1: AR40A746.2.3 monoclonal antibody (hybridoma IDAC 141204-01) (antibody, V domains shown)
VH: DVQLQESGPGLVKPSQSLSLTCTVTGYSITSDYAWNWIRQFPGNKLEWMGYISYSGFTNYNPSLKSRISITRDTSKNQFFLQLSSVTTEDTATYFCEGGNYRYSWFPYWGQGTLVTVSA
VL: DIQMTQTTSSLSASLGDRVTISCSASQGISNYLNWYQQKPDGNVKLLIYYTSSLHSGVPSRFSGSGSGTDYSLTISNLEPEDIATYYCQQYSKLPYTFGGGTKLEIKR
notes: also called IDAC 141204-01 antibody; mAR40A746.2.3
Take B1: the binding result in test [1] and in test [2] was “binds” each time.
